In ChEMBL document CHEMBL1156417, “Transferable resistance to aminoglycosides by methylation of G1405 in 16S rRNA and to hydrophilic fluoroquinolones by QepA-mediated efflux in Escherichia coli” (2007) one finds MIC data, which are given here for one compound.

What all share (assay type): functional
Assay [1] concerns Escherichia coli. Briefly: Antibacterial activity against Escherichia coli C600Rif in presence of 40 ug/ml efflux pump inhibitor 1-(1-naphthylmethyl)-piperazine by Etest.
For assay [2], the system named is Escherichia coli. The assay is described as follows: Antibacterial activity against Escherichia coli C600Rif in presence of 50 ug/ml efflux pump inhibitor phenyl-arginine-beta-naphthylamide by Etest.
Assay [3] has as its system Escherichia coli. Briefly: microbe, parasite or virus in culture.
Assay [4] concerns Escherichia coli. The assay is described as follows: Antibacterial activity against Escherichia coli C600Rif containing pIP1206 plasmid in presence of 50 ug/ml efflux pump inhibitor phenyl-arginine-beta-naphthylamide by Etest.
Assay [5] has as its system Escherichia coli. Briefly: Antibacterial activity against Escherichia coli TOP10 in presence of 40 ug/ml efflux pump inhibitor 1-(1-naphthylmethyl)-piperazine by Etest.
Assay [6] deals with Escherichia coli. Briefly: Antibacterial activity against Escherichia coli TOP10 in presence of 50 ug/ml efflux pump inhibitor phenyl-arginine-beta-naphthylamide by Etest.
Assay [7] deals with Escherichia coli. Briefly: Antibacterial activity against Escherichia coli TOP10 containing pIP1206 plasmid in presence of 40 ug/ml efflux pump inhibitor 1-(1-naphthylmethyl)-piperazine by Etest.
In assay [8] the test system is Escherichia coli. Briefly: Antibacterial activity against Escherichia coli TOP10 containing pIP1206 plasmid in presence of 50 ug/ml efflux pump inhibitor phenyl-arginine-beta-naphthylamide by Etest.
Assay [9] relates to Escherichia coli. Briefly: Antibacterial activity against Escherichia coli TOP10 containing pAT851 in presence of 40 ug/ml efflux pump inhibitor 1-(1-naphthylmethyl)-piperazine by Etest.
Assay [10] has as its system Escherichia coli. Briefly: Antibacterial activity against Escherichia coli TOP10 containing pAT851 in presence of 50 ug/ml efflux pump inhibitor phenyl-arginine-beta-naphthylamide by Etest.

≈ marks a conversion by molar mass, not a printed value.

For `CCn1cc(C(=O)O)c(=O)c2cc(F)c(N3CCN(C)CC3)cc21` [PEFLOXACIN], the MIC was found to be 0.064 µg/mL in the assay on Escherichia coli [1]; 0.047 µg/mL in the assay on Escherichia coli [2]; 0.064 µg/mL (≈ 0.192 µM) in the assay on Escherichia coli [3]; 0.032 µg/mL in the assay with Escherichia coli [4]; 0.016 µg/mL with Escherichia coli [5]; 0.016 µg/mL with Escherichia coli [6]. Further, the MIC in the assay with Escherichia coli [7], with Escherichia coli [8], in the assay on Escherichia coli [9] and in the assay with Escherichia coli [10] was 0.016 µg/mL in each case.
